Data: PMC12431657, “Discovery and mechanistic insights of dibenzoylmethane as a broad spectrum inhibitor of coronavirus” (PLOS Pathogens, 2025)
Structures can show the parent of a compound that is named as a salt. Where two headings read alike, the source gives them in different places. The whole screen tested about 3,300 compounds, of which about 60 (2%) showed an effect of 50% or more. Some of the results follow.

Test system: HCoV-OC43
Parameters: species or system RD; HTS, protection from HCoV-OC43 induced cell death, luminescent cell viability (CellCounting-Lite 2.0), inhibition rate
Conditions: 24 h post infection, 1 h compound pre-incubation, 10 µM, inhibitor

SMILES	OC43 Inhibition rate (OC43 Inhibition rate, 24 h) [%]	OC43 Inhibition rate [%]
C[C@@H]1O[C@@H](OC[C@H]2O[C@@H](OCCc3ccc(O)c(O)c3)[C@H](O)[C@@H](OC(=O)/C=C/c3ccc(O)c(O)c3)[C@@H]2O)[C@H](O)[C@H](O)[C@H]1O [Forsythoside I]	-1.6	–
CC(=O)OC(C)(C)C1CC=C(C)CC1 (stereo not drawn) [α-Terpinyl acetate]	–	-0.5
C=C1C(=O)O[C@@H]2[C@H]3C(CO)=CC(=O)C3=C(C)C[C@H](OC(=O)Cc3ccc(O)cc3)[C@@H]12 [Lactupicrin]	–	-0.5
NCC(=O)CCC(=O)O [5-Aminolevulinic acid (hydrochloride)]	–	1.1
C=C(C)C(=O)O[C@H]1[C@@H]2[C@H](C)C(=O)O[C@@H]2C[C@@H](C)[C@@H]2C=CC(=O)[C@]21C [Arnicolide D]	–	-1.2
O=C1O[C@H]([C@@H](O)CO)C(O)=C1O [L-Ascorbic acid (sodium salt)]	-0.4	–
CC(C)=CCC[C@](C)(O[C@@H]1O[C@H](CO)[C@@H](O)[C@H](O)[C@H]1O)[C@H]1CC[C@]2(C)[C@@H]1[C@H](O)C[C@@H]1[C@@]3(C)CC[C@H](O)C(C)(C)[C@@H]3CC[C@]12C [Ginsenoside C-K]	–	38.7
CCCCCCCCCCCCCC(=O)OC[C@H](COP(=O)(O)OCCN)OC(=O)CCCCCCCCCCCCC [(2R)-3-(((2-Aminoethoxy)(hydroxy)phosphoryl)oxy)propane-1,2-diyl ditetradecanoate]	–	-0.3
CCCCOC(=O)c1ccccc1C(=O)OCCCC [Dibutyl phthalate]	–	-1
O=Cc1ccc(O)cc1O [2,4-Dihydroxybenzaldehyde]	–	0.3
O=C(O)/C=C/C(=O)O [Fumaric acid]	–	4.1
O=c1cc(-c2ccc(O)cc2)oc2cc(O)c([C@@H]3O[C@H](CO)[C@@H](O)[C@H](O)[C@H]3O[C@@H]3O[C@H](CO)[C@@H](O)[C@H](O)[C@H]3O)c(O)c12 [Meloside A]	–	-0.6
O=C1N[C@@H](Cc2ccc(O)cc2)C(=O)N2CCC[C@@H]12 [Maculosin]	–	-0.1
C[C@H](CCC(=O)O)[C@H]1CC[C@H]2[C@@H]3C[C@H](O)[C@@H]4C[C@H](O)CC[C@]4(C)[C@H]3CC[C@]12C [Hyodeoxycholic acid]	–	0.4
C/C=C/c1cc(OC)c2c(c1)[C@@H](C)[C@H](c1ccc3c(c1)OCO3)O2 [Licarin B]	–	5.2
CC(C)CCC[C@@H](C)[C@H]1CC[C@@]2(C)C3=C(CC[C@]12C)[C@@]1(C)CC[C@H](O)C(C)(C)[C@@H]1CC3 [Dihydrolanosterol]	–	-1.3
C=C[C@H]1[C@H](O[C@@H]2O[C@H](CO)[C@@H](O)[C@H](O)[C@H]2O)OC=C2C(=O)OCC[C@]21O [Swertiamarin]	–	5.1
C=C(CCC=C(C)C)[C@H]1CC[C@]2(C)[C@@H]1[C@H](O)C[C@@H]1[C@@]3(C)CC[C@H](O)C(C)(C)[C@@H]3[C@@H](O[C@@H]3O[C@H](CO)[C@@H](O)[C@H](O)[C@H]3O[C@@H]3O[C@@H](C)[C@H](O)[C@@H](O)[C@H]3O)C[C@]12C [Ginsenoside Rg6]	–	16.2
CN=C(N)N [1-Methylguanidine hydrochloride]	–	0.8
C[C@H](CCC(=O)NCC(=O)O)[C@H]1CC[C@H]2[C@@H]3[C@H](O)C[C@@H]4C[C@H](O)CC[C@]4(C)[C@H]3C[C@H](O)[C@]12C [Glycocholic acid (hydrate)]	-0.1	–
COc1ccc(-c2cc(=O)c3c(O)cc(O)cc3o2)cc1-c1c(O)cc(O)c2c(=O)cc(-c3ccc(O)cc3)oc12 [Bilobetin]	–	19.8
CC1=C[C@]23C(=O)[C@H](C=C4COC(C)(C)OC4C24OC(C)(C)OC14)[C@@H]1[C@H](CC3C)C1(C)C (stereo partly shown) [Ingenol-3,4,5,20-diacetonide]	–	0.5
CC(C)C1=CC(=O)[C@@](C)([C@H]2[C@H](O)C[C@@]3(C)[C@@H]4CC=C5[C@@H](CC[C@@H](O[C@@H]6O[C@H](CO)[C@@H](O)[C@H](O)[C@H]6O[C@@H]6O[C@@H](C)[C@H](O)[C@@H](O)[C@H]6O)C5(C)C)[C@]4(C)C(=O)C[C@]23C)O1 [Picfeltarraenin IB]	–	2.2
COC(=O)[C@@]12OC[C@]34[C@H]([C@@H](O)[C@@H]1O)[C@@]1(C)CC(=O)C(O)=C(C)[C@@H]1C[C@H]3OC(=O)[C@H](OC(C)=O)[C@@H]24 [Bruceine B]	–	28.2
CCCCCCCCCCCCCCCCCCCC(=O)O [Arachidic acid]	–	-0.1
C[C@@H]1O[C@@H](O[C@H]2[C@H](Oc3cc(O)c4c(c3)O[C@H](c3ccc(O)cc3)CC4=O)O[C@H](CO)[C@@H](O)[C@@H]2O)[C@H](O)[C@H](O)[C@H]1O [Naringin]	–	9.3
COc1ccc(CCc2cc(OC)c(OC)c(OC)c2)cc1O [Erianin]	–	-1.4
CN1CCc2cc3c(cc2C(=O)Cc2cc4c(cc2C1)OCO4)OCO3 [Protopine]	–	-5.7

SMILES	OC43 Inhibition rate (OC43 Inhibition rate, 24 h) [%]	OC43 Inhibition rate [%]
O=c1ccn([C@@H]2O[C@H](COP(=O)(O)O)[C@@H](O)[C@H]2O)c(=O)[nH]1 [Uridine 5'-monophosphate]	0.6	–
O=c1c(O[C@@H]2O[C@H](CO[C@@H]3O[C@H](CO)[C@@H](O)[C@H](O)[C@H]3O)[C@@H](O)[C@H](O)[C@H]2O)c(-c2ccc(O)c(O)c2)oc2cc(O)cc(O)c12 [Quercetin 3-gentiobioside]	–	3.9
OC[C@H]1O[C@@H](O[C@@H]2OC=C[C@H]3[C@H](O)[C@@H]4O[C@]4(CO)[C@@H]23)[C@H](O)[C@@H](O)[C@@H]1O [Catalpol]	–	-0.6
CCC(O)CC [3-Pentanol]	–	0
C[C@H](CC(=O)O)[C@H]1CC[C@H]2[C@@H]3[C@H](O)C[C@@H]4C[C@H](O)CC[C@]4(C)[C@H]3C[C@H](O)[C@]12C [Norcholic acid]	–	0.2
C/C=C/c1ccc(O)c(OC)c1 [Isoeugenol]	–	3.5
COc1cc(C(C)=O)cc(OC)c1O [Acetosyringone]	–	-1.8
OC[C@H]1O[C@H](O[C@H]2O[C@H](CO)[C@@H](O)[C@H](O)[C@H]2O)[C@H](O)[C@@H](O)[C@@H]1O [D-(+)-Trehalose dihydrate]	-0.7	–
CC(C)=CCC/C(C)=C\CO [Nerol]	–	0.6
COc1cc(-c2oc3cc(O[C@@H]4O[C@H](CO)[C@@H](O)[C@H](O)[C@H]4O)cc(O)c3c(=O)c2O)ccc1O [Brassicin]	–	0.2
Cc1ncccc1O [3-Hydroxy-2-methylpyridine]	–	1.2
C=C(CC[C@@H](C(=O)O)[C@H]1[C@H](O)C[C@@]2(C)C3=C(CC[C@]12C)[C@@]1(C)CC[C@H](OC(C)=O)C(C)(C)[C@@H]1CC3)C(C)C [Pachymic acid]	–	-1.9
CC1=CC(=O)c2ccccc2C1=O [Menadione]	–	-0.4
CCC(C)C(=O)C(=O)O (stereo not shown) [3-Methyl-2-oxovaleric acid]	–	-0.2
C[C@@H]1O[C@@H](O[C@H]2[C@H](O[C@H]3CC[C@@]4(C)[C@@H](CC[C@]5(C)[C@@H]4CC=C4[C@@H]6CC(C)(C)CC[C@]6(C(=O)O)CC[C@]45C)[C@]3(C)CO)OC[C@H](O[C@@H]3O[C@H](CO)[C@@H](O)[C@H](O)[C@H]3O)[C@@H]2O)[C@H](O)[C@H](O)[C@H]1O [Pulsatilla saponin D]	–	13.9
O=C(O)Cc1ccc(O)c(O)c1 [3,4-Dihydroxybenzeneacetic acid]	–	-1.1
CC(=O)N[C@H](C(=O)O)C(C)C [Acetylvaline]	–	-0.2
CC(C)=CCC[C@@](C)(O)[C@H]1CC[C@]2(C)[C@@H]1[C@H](O)C[C@@H]1[C@@]3(C)CC[C@H](O[C@@H]4O[C@H](CO)[C@@H](O)[C@H](O)[C@H]4O[C@@H]4O[C@H](CO)[C@@H](O)[C@H](O)[C@H]4O)C(C)(C)[C@@H]3CC[C@]12C [(20R)-Ginsenoside Rg3]	–	2.9
O[C@]12CO[C@H](c3ccc4c(c3)OCO4)[C@H]1CO[C@@H]2c1ccc2c(c1)OCO2 [Paulownin]	–	-0.3
O=c1c(O[C@@H]2O[C@@H](CO)[C@H](O)[C@H]2O)c(-c2ccc(O)c(O)c2)oc2cc(O)cc(O)c12 [Avicularin]	–	9.4
C=C1CCC[C@]2(C)C[C@]3(O)OC(=O)C(C)=C3C[C@@H]12 [Atractylenolide III]	–	0
C=C1[C@H]2C[C@H]2[C@]2(C)Cc3occ(C)c3[C@H](O)[C@@H]12 [Lindenenol]	–	1.4
O=C(O)/C=C/C=C/c1ccccc1 [Cinnamylideneacetic acid]	–	-0.1
CO[C@@H]1[C@H](O)CC[C@]2(CO2)[C@H]1[C@@]1(C)O[C@@H]1CC=C(C)C [Fumagillol]	–	6.9
O=C(CO)[C@@H](O)[C@H](O)[C@@H](O)CO [(3S,4R,5S)-1,3,4,5,6-Pentahydroxyhexan-2-one]	–	7.4
O=C(/C=C/c1ccc(O)c(O)c1)O[C@H]1[C@H](O)C[C@](O)(C(=O)O)C[C@H]1O [Cryptochlorogenic acid]	–	-0.8
N[C@@H](CCC(=O)NCC(=O)O)C(=O)O [γ-Glu-Gly]	–	-0.3

A second format for 13 compounds above:
SMILES | OC43 Inhibition rate (OC43 Inhibition rate, 24 h) [%] | OC43 Inhibition rate [%]
CC(C)=CCC/C(C)=C\CO [Nerol] | – | 0.6
COc1cc(-c2oc3cc(O[C@@H]4O[C@H](CO)[C@@H](O)[C@H](O)[C@H]4O)cc(O)c3c(=O)c2O)ccc1O [Brassicin] | – | 0.2
Cc1ncccc1O [3-Hydroxy-2-methylpyridine] | – | 1.2
C=C(CC[C@@H](C(=O)O)[C@H]1[C@H](O)C[C@@]2(C)C3=C(CC[C@]12C)[C@@]1(C)CC[C@H](OC(C)=O)C(C)(C)[C@@H]1CC3)C(C)C [Pachymic acid] | – | -1.9
CC1=CC(=O)c2ccccc2C1=O [Menadione] | – | -0.4
CCC(C)C(=O)C(=O)O (stereo not shown) [3-Methyl-2-oxovaleric acid] | – | -0.2
C[C@@H]1O[C@@H](O[C@H]2[C@H](O[C@H]3CC[C@@]4(C)[C@@H](CC[C@]5(C)[C@@H]4CC=C4[C@@H]6CC(C)(C)CC[C@]6(C(=O)O)CC[C@]45C)[C@]3(C)CO)OC[C@H](O[C@@H]3O[C@H](CO)[C@@H](O)[C@H](O)[C@H]3O)[C@@H]2O)[C@H](O)[C@H](O)[C@H]1O [Pulsatilla saponin D] | – | 13.9
O=C(O)Cc1ccc(O)c(O)c1 [3,4-Dihydroxybenzeneacetic acid] | – | -1.1
CC(=O)N[C@H](C(=O)O)C(C)C [Acetylvaline] | – | -0.2
CC(C)=CCC[C@@](C)(O)[C@H]1CC[C@]2(C)[C@@H]1[C@H](O)C[C@@H]1[C@@]3(C)CC[C@H](O[C@@H]4O[C@H](CO)[C@@H](O)[C@H](O)[C@H]4O[C@@H]4O[C@H](CO)[C@@H](O)[C@H](O)[C@H]4O)C(C)(C)[C@@H]3CC[C@]12C [(20R)-Ginsenoside Rg3] | – | 2.9
O[C@]12CO[C@H](c3ccc4c(c3)OCO4)[C@H]1CO[C@@H]2c1ccc2c(c1)OCO2 [Paulownin] | – | -0.3
O=c1c(O[C@@H]2O[C@@H](CO)[C@H](O)[C@H]2O)c(-c2ccc(O)c(O)c2)oc2cc(O)cc(O)c12 [Avicularin] | – | 9.4
C=C1CCC[C@]2(C)C[C@]3(O)OC(=O)C(C)=C3C[C@@H]12 [Atractylenolide III] | – | 0
